Reference: the supplement of paper PMC3334620
The full ranking holds about 33,000 sequences; the median of “E-score (-0.5 to 0.5)” is about -0.0059, and the highest 2% start at about 0.26. The list shows a part of the results.

Target: T1, Cin5 (UniProt P40917)
T1 sequence: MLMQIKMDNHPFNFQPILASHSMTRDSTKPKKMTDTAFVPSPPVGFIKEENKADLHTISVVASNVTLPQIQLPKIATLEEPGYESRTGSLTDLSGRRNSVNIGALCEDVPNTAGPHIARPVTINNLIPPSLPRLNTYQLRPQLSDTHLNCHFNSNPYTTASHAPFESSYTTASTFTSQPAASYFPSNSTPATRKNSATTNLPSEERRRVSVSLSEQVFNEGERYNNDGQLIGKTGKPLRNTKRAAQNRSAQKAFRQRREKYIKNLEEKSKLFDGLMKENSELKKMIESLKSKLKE
Test: PBM E-score (8-mer binding enrichment) (E-score (-0.5 to 0.5)); higher = stronger / more preferred TF binding
Details: protein concentration: 100 nM; construct: GST-full length
Method in brief: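 GST-tagged yeast TFs (full-length or DNA-binding domain) were made by PURExpress in vitro transcription/translation and applied at about 100-200 nM to universal all-10-mer Agilent arrays. The arrays were made double-stranded by primer extension, on fresh or once-stripped slides. Bound protein was detected with fluorescent anti-GST, and scans were normalised with masliner. Each ungapped eight-base word, pooled with its reverse complement, received an E-score (modified Wilcoxon-Mann-Whitney statistic) from the Universal PBM Analysis Suite.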

Row | Sequence | PBM E-score
1 | CCGAGTCC | -0.156
2 | AAGATGCA | 0.216
3 | TAATTGAA | -0.0513
4 | AGACGAAA | 0.205
5 | CCAGCGCC | -0.312
6 | GATCCCGC | 0.156
7 | CGAGATCG | -0.0928
8 | AATCCCAT | 0.141
9 | ATAAATGA | 0.156
10 | CGCGTCCA | -0.0924
11 | GGATACCC | -0.0478
12 | CGCCTTTC | -0.135
13 | ATGCACCA | -0.112
14 | AACTTTAC | 0.039
15 | AAGCGAAT | 0.223
16 | CCGGTAGG | -0.163
17 | GCTTCTCA | -0.0109
18 | CACTCGGC | 0.0804
19 | CCTCGGGA | -0.13
20 | AACTACTC | 0.177
21 | AGTCTTTC | -0.154
22 | AGCTTCAT | 0.103
23 | CCATATCA | 0.099
24 | CGACCCGC | -0.119
25 | GTTTTTTA | -0.0307

Row | Sequence | PBM E-score
26 | ACGCCTGG | -0.0426
27 | CATAATAG | 0.241
28 | CGGGCAAC | -0.0371
29 | GTACCACA | 0.115
30 | CAAATAGC | 0.111
31 | CTCCTGTA | 0.0328
32 | CAGTGGCC | -0.205
33 | CCCCTTGC | -0.222
34 | ACGACCGC | -0.109
35 | CTTATAAA | 0.154
36 | CGCAAACA | 0.193
37 | TCAGAAGA | -0.13
38 | ACTAGTTA | 0.025
39 | ACGGAACG | 0.175
40 | CCTAATAC | 0.113
41 | GTCTAGTA | 0.22
42 | ATGGCTGC | -0.0428
43 | CCACAACG | -0.153
44 | TATCCGGA | 0.142
45 | GCCGTAAA | 0.138
46 | GCCATGCA | -0.0503
47 | ATTCTTTA | -0.0489
48 | CCGGGGCG | -0.146
49 | CAATCGTG | -0.0307
50 | CATCCACG | 0.0707

Row | Sequence | PBM E-score
51 | AATCAGAC | 0.133
52 | CAGAGCTG | -0.166
53 | CTGGGAAA | 0.0445
54 | AGTCATAA | -0.0314
55 | GGAGAAAA | -0.0389
56 | TCATCTAA | 0.129
57 | AGATGACA | 0.0835
58 | AGATTGCG | 0.0202
59 | GCGCGCTA | 0.146
60 | GTATCTCA | 0.196
61 | CACCGTCA | -0.131
62 | GGTCGAAC | -0.0747
63 | GGTAGTAA | 0.0106
64 | AAGGTCGA | 0.146
65 | CTATGTAC | 0.117
66 | GAGACGGC | -0.037
67 | CGGCACCA | -0.14
68 | AACTAATC | 0.233
69 | GATTAAGA | 0.104
70 | AATACCAA | 0.142
71 | GGATCAGA | -0.042
72 | AGGAAAAT | 0.113
73 | ATTACCAC | 0.151
74 | AATATATC | 0.156
75 | GAAGCTTA | 0.171

Row | Sequence | PBM E-score
76 | AACTGACA | 0.0152
77 | GAACGGTC | -0.15
78 | TCTTTTCA | 0.0867
79 | AAGCCATA | 0.00622
80 | ACGCTCCC | -0.199
81 | ACCGGAGT | -0.0595
82 | GGCTTTAC | 0.00035
83 | AAATTGCG | 0.0806
84 | AATAGACA | -0.0233
85 | AGGAGAAA | -0.085
86 | CTCTATGA | -0.0648
87 | GACCACTA | 0.171
88 | GTGTACAA | 0.0823
89 | ATCAGTCA | 0.122
90 | ATGAACTC | -0.0112
91 | CTCTTAGC | -0.0546
92 | GAATAACA | 0.26
93 | AGGTTTGG | -0.0675
94 | ACAAGTCC | -0.144
95 | ATCTAGAT | -0.0604
96 | CAGTGCCA | -0.262
97 | GCCCTTAA | -0.0839
98 | GAAGGGTC | -0.259
99 | AGCGGCGC | -0.253
100 | CGACATCA | 0.137

Row | Sequence | PBM E-score
101 | GGGAGCCA | -0.242
102 | AGATAGTA | 0.213
103 | GAACTACA | 0.021
104 | GTGATCCA | -0.115
105 | AGACATAT | 0.0819
106 | CACTCGTC | -0.0573
107 | AAAGCCGG | 0.0406
108 | TATCGCCA | 0.132
109 | CATCACAA | 0.123
110 | CCCGACGG | -0.0846
111 | ATAAGTTC | 0.227
112 | TATCGACA | 0.112
113 | ACAAGTCT | -0.0633
114 | CTAAGGGA | -0.0345
115 | TACGTGAA | 0.0132
116 | AATGCCTG | -0.0859
117 | AGCGGTCC | -0.0708
118 | CTACTCAG | -0.0922
119 | GCGGCCTA | -0.155
120 | CATGCCAC | 0.0211
121 | AACAAGAG | 0.0102
122 | CTTTCACA | 0.0544
123 | AAAATTAA | 0.105
124 | CAGCACGA | 0.00097
125 | GAACGGCA | 0.048

Row | Sequence | PBM E-score
126 | GCCGCTAC | -0.0553
127 | AGTATGTG | 0.14
128 | CACGTAAC | 0.0354
129 | GGGATTTA | -0.0186
130 | ATGAGCTA | 0.154
131 | AAGCTGTG | 0.07
132 | ACCATCAT | 0.0905
133 | GTTAAATA | 0.102
134 | TAAGTCTA | -0.11
135 | GCACTGAA | -0.0379
136 | ATCAGCTC | 0.103
137 | ATGTAGTA | 0.165
138 | CGGCCCCC | -0.408
139 | CTTTAGGA | -0.062
140 | TGTTGAAA | 0.216
141 | CTAACCCA | -0.0281
142 | TGTGAGAA | 0.171
143 | GAGAGTCA | -0.0414
144 | TCCACCCA | -0.012
145 | ACGGGATC | -0.0232
146 | AATTGTGA | 0.0921
147 | CGGAGTTC | 0.0362
148 | AGTCCCAA | -0.00919
149 | AACATTCC | 0.0599
150 | CGATTCCA | -0.0744

Row | Sequence | PBM E-score
151 | GGCCGCCC | -0.292
152 | GGTTAACC | -0.121
153 | AAGCGTCA | -0.033
154 | AACCTTTG | -0.127
155 | ATGAAACC | 0.113
156 | AGGTTACC | 0.0613
157 | CGAGGTTC | 0.00352
158 | AATCCTAC | -0.167
159 | AGTCCAGC | -0.285
160 | CATCAAGC | 0.0431
161 | ATTCGGCA | -0.0104
162 | CCATAACA | 0.102
163 | AGTCTTAA | -0.13
164 | ATTTCTAA | 0.0224
165 | CCCAGAAC | -0.0388
166 | AGCGCGAC | 0.00359
167 | CTAGCTAA | 0.0272
168 | ACCGCTCG | -0.0731
169 | GTTGAGTA | 0.0846
170 | ATTGGGTC | 0.13
171 | CGAGTCAC | -0.192
172 | CCGCGAGA | -0.167
173 | GAGCGCAA | -0.111
174 | TCGTATCA | 0.222
175 | GCGGGTTA | 0.0782

Seven records picked at random from those above, as already listed:
Row | Sequence | PBM E-score
172 | CCGCGAGA | -0.167
158 | AATCCTAC | -0.167
151 | GGCCGCCC | -0.292
175 | GCGGGTTA | 0.0782
164 | ATTTCTAA | 0.0224
157 | CGAGGTTC | 0.00352
166 | AGCGCGAC | 0.00359

(cont.)

Row | Sequence | PBM E-score
176 | ACAGGCGC | -0.26
177 | AGCAGAAG | -0.0132
178 | GAAGGATA | 0.0101
179 | AAATTATC | 0.278
180 | CGTTTGAC | -0.0898
181 | GTGTAGGA | -0.0437
182 | AGATTGAC | 0.0942
183 | GACGTAAC | 0.186
184 | ATCCTTTA | -0.0507
185 | ATTTATGA | 0.153
186 | GTGTATGA | 0.0344
187 | ATGATCGG | 0.0758
188 | ACGGTTAA | -0.00571
189 | AGAGGTAT | 0.176
190 | CACGCGAA | -0.0826
191 | CACAAGTG | -0.271
192 | AATCTGCA | 0.0353
193 | CGCTCCGC | -0.162
194 | CCAGCACA | -0.0863
195 | GTAGTGAA | 0.0138
196 | TAGGCTAA | -0.102
197 | GAACAAAA | 0.278
198 | CACTATCA | 0.0524
199 | TCTTTGAA | -0.103
200 | CCCACATA | 0.0598

Row | Sequence | PBM E-score
201 | ATTTCTAG | 0.0527
202 | ACCCAGGA | -0.18
203 | CAGTTCAA | 0.042
204 | AACCAAAA | 0.204
205 | CATCAGTC | -0.0112
206 | ACCTAGGC | -0.123
207 | ACCCCAAC | 0.145
208 | ACGCAGTG | -0.238
209 | ACGTGGAT | 0.133
210 | CCGAATAG | -0.0268
211 | ACAAAGAC | 0.0392
212 | GCTGTGTA | -0.0209
213 | CTCTAAGC | 0.0569
214 | CATAGGGA | -0.0595
215 | CCCCCTCA | -0.385
216 | ATGCGAGC | 0.0464
217 | CCACACTC | -0.0973
218 | ACTCTGCT | -0.108
219 | GCACGTAC | -0.0532

Reformatted tab-delimited: part of the list above
Row	Sequence	PBM E-score
32	CAGTGGCC	-0.205
93	AGGTTTGG	-0.0675
